According to paper PMC10716122:
These are yes or no findings as the source states them, for the method shown. In cells and extracts the contact can be indirect. Some entries that bind do so weakly or less than the wild type. For part of these data: Tags and fused reporters may be left off the sequences shown.

Protein sequences, listed by entry. Tags and fused reporters are not part of them. Lines headed by an entry give the natural chain unless they say otherwise; changes in a name come on top.
UniProt O96017: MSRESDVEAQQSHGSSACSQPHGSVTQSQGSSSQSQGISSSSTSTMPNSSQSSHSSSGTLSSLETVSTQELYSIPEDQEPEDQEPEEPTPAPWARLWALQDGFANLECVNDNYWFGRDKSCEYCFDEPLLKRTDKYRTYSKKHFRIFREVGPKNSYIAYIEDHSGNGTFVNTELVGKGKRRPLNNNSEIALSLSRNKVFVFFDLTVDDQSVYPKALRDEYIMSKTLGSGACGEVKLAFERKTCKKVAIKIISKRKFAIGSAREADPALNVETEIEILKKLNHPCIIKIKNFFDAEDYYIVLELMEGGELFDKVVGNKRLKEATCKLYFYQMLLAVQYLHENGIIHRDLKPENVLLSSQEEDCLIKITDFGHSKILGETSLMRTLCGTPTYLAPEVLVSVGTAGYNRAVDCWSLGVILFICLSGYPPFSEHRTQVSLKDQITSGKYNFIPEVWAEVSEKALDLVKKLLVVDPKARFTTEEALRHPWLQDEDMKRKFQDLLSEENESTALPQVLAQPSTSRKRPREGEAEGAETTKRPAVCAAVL
UniProt Q8N884: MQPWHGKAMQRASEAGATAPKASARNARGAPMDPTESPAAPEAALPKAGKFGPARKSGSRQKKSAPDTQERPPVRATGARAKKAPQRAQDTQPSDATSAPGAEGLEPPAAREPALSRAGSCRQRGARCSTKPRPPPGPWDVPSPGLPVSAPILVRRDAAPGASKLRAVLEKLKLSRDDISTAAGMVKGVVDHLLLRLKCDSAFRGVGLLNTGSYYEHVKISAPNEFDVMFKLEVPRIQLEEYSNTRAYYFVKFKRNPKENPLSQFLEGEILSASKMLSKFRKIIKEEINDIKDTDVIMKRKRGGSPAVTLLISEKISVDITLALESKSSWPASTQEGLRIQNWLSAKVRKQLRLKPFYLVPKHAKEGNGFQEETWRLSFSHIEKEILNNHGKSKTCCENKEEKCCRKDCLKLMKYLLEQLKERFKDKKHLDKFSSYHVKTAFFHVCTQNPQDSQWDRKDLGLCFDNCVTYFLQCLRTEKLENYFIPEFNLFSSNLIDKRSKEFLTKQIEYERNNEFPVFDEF

Experiments:
[1] = molecular target: T1, TRIM41, HA-tagged (human) (UniProt Q8WV44); assay: proximity ligation; HeLa cells on coverslips, fixed with 4% paraformaldehyde, permeabilised with 0.5% Triton X-100; Duolink In Situ Red Starter Kit; some panels after DNA damage, with BML-277 or with cGAS overexpressed or depleted
T1 sequence: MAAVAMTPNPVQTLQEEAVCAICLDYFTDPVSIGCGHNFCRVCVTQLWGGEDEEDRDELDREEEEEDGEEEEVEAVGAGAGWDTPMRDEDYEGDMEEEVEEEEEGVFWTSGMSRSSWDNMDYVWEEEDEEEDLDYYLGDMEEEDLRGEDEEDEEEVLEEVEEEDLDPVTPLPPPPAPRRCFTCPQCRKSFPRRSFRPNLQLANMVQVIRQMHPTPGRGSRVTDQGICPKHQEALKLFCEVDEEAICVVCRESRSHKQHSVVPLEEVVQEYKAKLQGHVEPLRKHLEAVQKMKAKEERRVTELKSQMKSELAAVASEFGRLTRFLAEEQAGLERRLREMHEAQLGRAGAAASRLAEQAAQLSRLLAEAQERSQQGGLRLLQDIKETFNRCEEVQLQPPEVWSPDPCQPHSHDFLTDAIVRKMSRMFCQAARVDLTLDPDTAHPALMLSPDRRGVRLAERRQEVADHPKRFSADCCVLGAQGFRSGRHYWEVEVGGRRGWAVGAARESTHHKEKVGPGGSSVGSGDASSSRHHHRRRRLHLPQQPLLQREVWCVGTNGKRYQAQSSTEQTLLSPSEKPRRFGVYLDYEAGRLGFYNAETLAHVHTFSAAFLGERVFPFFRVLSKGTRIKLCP

[2] = molecular target: Checkpoint kinase CHK2, wild type (human) (UniProt O96017); assay: as above
[3] = molecular target: T1, TRIM41, HA-tagged (human); assay: co-IP; transfected cells (HEK293T or HeLa) lysed 24 h post-transfection in 20 mM HEPES pH 8.0, 150 mM NaCl, 0.2 mM EDTA, 1% NP-40, 5% glycerol, sonicated; antibody-conjugated beads, 4 °C overnight; Western blot; some panels after etoposide (100 µg/mL), with the CHK2 inhibitor BML-277, with olaparib, or with cGAS overexpressed, knocked down or knocked out
[4] = molecular target: Checkpoint kinase CHK2, wild type (human) (UniProt O96017); assay: as above

binding [3] | binding [4] | Substance | binding [1] | binding [2]
binds | binds | Cyclic GMP-AMP synthase (cGAS), wild type, expressed in human cells (from UniProt Q8N884 1-522) | binds | binds
binds | binds | cGAS D408N (cancer-associated mutant) (from UniProt Q8N884 1-522) |  | 
binds | binds | cGAS E383K (cancer-associated mutant) (from UniProt Q8N884 1-522) |  | 
binds | binds | cGAS L377P (cancer-associated mutant) (from UniProt Q8N884 1-522) |  | 
binds | binds | cGAS P486L (cancer-associated mutant) (from UniProt Q8N884 1-522) |  | 
binds |  | cGAS S120A (from UniProt Q8N884 1-522) | binds | 
binds |  | cGAS S305A (from UniProt Q8N884 1-522) | binds | 
binds | binds | cGAS S345L (cancer-associated mutant) (from UniProt Q8N884 1-522) |  | 
